Literature values, collected in patent US20240067621A1, “POLYFLUORINATED CANNABINOID AND CANNABINOID-LIKE COMPOUNDS AND METHODS OF SYNTHESIS AND USE THEREOF” (The Board of Regents For The Oklahoma Agricultural And …, priority 2021, published 2024).
For at least one compound, name, drawing or mass did not settle the structure.

Experiments:
[1] = compared to the non-fluorinated hormone, cortisol; cited from earlier work
[2] = compared to the non-fluorinated hormone, cortisol; cited from earlier work; remark: listed apart in the source

Which “increase in glucocorticoid activity” value [1] does the source give for `C[C@]12CCC(=O)C=C1CC[C@H]1[C@@H]3CC[C@](O)(C(=O)CO)[C@@]3(C)C[C@H](O)[C@@]12F` [fludrocortisone] here?
The value was “tenfold increase”.

And the mineralocorticoid activity [2]?
The mineralocorticoid activity was “up to 800 times”.
